No constants are given. Whether binding was seen depends on the method and setting. Binding seen in cells or lysates may run through a third protein. Some entries that bind do so weakly or less than the wild type. For some assays here: Sequences can lack the tags named with a protein.
Columns and labels:
[1] = molecular target: TAP-tagged version of Rpb2 (S. cerevisiae) (UniProt P08518); assay: pull-down
[2] = molecular target: Rpb3 subunit of RNA pol II (S. cerevisiae) (UniProt P16370); assay: co-IP
[3] = molecular target: T1, Rpc160::Myc, tagged form of the largest subunit of RNA pol III (S. cerevisiae) (UniProt P04051); assay: co-IP
T1 sequence: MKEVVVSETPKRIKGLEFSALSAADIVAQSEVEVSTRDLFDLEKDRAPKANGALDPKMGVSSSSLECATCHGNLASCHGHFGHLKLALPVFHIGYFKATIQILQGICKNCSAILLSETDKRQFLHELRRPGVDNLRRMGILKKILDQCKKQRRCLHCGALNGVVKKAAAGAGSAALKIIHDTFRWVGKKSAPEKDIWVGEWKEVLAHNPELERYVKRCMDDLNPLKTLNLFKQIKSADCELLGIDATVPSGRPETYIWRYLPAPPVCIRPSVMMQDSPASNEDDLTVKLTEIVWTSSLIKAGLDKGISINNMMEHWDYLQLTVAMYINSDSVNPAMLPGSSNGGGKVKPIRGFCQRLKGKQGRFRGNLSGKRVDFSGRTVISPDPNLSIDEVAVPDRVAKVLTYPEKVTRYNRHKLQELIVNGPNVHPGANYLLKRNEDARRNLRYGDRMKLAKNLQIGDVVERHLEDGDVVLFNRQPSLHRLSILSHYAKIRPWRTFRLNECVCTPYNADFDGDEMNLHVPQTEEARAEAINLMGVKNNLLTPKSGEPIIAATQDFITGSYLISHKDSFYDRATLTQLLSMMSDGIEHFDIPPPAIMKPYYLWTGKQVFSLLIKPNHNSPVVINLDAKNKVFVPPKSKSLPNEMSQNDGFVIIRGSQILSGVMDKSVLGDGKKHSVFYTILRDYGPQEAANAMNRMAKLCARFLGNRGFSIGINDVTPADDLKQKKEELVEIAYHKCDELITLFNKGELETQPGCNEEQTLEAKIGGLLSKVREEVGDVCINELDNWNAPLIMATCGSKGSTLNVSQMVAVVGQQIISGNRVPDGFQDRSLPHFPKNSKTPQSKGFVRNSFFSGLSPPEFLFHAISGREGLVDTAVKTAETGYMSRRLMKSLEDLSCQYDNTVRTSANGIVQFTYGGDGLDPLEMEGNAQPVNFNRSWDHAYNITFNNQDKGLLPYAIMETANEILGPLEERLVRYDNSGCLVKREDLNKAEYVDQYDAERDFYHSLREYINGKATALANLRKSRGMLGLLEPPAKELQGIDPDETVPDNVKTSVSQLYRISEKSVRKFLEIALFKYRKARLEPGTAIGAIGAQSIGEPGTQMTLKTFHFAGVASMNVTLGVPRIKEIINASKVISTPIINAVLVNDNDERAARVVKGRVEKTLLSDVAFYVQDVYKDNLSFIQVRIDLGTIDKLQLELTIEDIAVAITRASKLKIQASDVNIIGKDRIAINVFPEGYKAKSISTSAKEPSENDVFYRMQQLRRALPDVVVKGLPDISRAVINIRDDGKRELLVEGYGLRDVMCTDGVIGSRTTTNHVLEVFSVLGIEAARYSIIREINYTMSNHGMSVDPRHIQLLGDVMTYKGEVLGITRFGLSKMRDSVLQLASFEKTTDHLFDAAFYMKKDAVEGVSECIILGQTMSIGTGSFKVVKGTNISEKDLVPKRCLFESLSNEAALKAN

By UniProt entry, the sequences of proteins in these tests, tags left out.
UniProt P08518: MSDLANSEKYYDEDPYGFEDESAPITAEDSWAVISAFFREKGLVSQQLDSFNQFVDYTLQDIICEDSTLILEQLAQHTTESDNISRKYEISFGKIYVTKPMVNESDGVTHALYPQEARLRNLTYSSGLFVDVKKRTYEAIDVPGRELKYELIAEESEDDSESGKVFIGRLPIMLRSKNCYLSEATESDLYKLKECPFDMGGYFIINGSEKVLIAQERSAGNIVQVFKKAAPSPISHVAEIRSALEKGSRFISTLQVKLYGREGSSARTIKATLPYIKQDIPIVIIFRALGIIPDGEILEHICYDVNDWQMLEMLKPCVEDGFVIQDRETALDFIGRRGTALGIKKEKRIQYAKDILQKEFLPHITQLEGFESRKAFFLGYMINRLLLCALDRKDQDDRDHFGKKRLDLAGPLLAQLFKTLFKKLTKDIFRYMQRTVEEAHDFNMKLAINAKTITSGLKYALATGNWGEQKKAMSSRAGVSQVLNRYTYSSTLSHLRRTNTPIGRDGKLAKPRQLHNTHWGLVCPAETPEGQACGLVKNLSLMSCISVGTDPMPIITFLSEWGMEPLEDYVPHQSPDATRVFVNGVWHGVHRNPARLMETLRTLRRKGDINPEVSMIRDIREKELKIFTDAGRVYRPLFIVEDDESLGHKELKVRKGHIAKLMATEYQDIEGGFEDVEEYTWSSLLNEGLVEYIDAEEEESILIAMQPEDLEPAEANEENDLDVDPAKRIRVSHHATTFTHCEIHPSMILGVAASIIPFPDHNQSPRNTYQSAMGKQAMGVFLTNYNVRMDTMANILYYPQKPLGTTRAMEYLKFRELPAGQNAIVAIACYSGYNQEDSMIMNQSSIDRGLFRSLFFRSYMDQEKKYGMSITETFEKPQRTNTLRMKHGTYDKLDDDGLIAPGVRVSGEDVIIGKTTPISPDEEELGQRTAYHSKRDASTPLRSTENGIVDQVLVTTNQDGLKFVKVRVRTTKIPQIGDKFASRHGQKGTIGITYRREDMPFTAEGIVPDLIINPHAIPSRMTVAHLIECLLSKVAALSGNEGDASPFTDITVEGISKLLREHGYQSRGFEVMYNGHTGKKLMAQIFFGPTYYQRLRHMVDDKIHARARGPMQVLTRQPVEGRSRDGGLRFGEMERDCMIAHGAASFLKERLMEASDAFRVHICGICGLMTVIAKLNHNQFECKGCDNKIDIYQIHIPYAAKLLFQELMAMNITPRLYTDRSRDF
UniProt P16370: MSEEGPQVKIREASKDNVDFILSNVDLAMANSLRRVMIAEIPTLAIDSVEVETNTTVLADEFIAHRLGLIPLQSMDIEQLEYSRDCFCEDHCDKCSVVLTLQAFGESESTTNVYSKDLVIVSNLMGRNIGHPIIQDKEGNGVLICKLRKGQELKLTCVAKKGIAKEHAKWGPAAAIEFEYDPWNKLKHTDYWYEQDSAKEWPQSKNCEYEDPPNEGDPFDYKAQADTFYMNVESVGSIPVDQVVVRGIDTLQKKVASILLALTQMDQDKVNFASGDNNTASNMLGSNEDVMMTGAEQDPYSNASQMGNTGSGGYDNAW
UniProt P20436: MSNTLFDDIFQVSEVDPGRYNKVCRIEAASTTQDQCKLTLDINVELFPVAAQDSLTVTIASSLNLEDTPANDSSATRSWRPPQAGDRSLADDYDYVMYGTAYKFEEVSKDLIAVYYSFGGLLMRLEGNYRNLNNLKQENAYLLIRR
UniProt P20435: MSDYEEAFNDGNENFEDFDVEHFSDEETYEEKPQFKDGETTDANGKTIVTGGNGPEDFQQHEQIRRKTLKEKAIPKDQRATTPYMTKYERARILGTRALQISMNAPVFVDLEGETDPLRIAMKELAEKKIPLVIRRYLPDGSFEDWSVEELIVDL
UniProt P20434: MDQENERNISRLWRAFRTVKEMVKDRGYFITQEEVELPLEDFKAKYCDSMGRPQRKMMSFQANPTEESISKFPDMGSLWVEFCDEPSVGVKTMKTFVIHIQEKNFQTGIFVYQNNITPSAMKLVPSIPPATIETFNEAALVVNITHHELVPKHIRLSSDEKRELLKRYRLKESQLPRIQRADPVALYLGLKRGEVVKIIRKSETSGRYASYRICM

| binding [1] | binding [2] | binding [3] | Substance |
| --- | --- | --- | --- |
| binds | – | – | Rpb3 subunit of RNA pol II (from UniProt P16370 1-318) |
| – | binds | – | Rpb8-TAP tagged protein (from UniProt P20436 1-146) |
| – | binds | – | Rpb6 subunit of RNA pol II (from UniProt P20435 1-155) |
| – | binds | binds | Rpb5, common subunit of the three RNA polymerases (from UniProt P20434 1-215) |
